In PubChem BioAssay AID540256 (National Center for Advancing Translational Sciences (NCATS), 2011):
In all, about 300,000 compounds went through this assay and about 3,700 (1.2%) were called active. The shares of active, inactive and inconclusive entries below differ from those in the screen. Calls come from the whole dose curve; tested in HEK293 cells. Potencies beside an inconclusive call are fits to weak or partial responses and may not hold up.
% is set by controls: 0 for no effect and ±100 for the full control effect; potency is the fitted concentration of half-maximal effect.

Test: qHTS for Inhibitors of binding or entry into cells for Lassa Virus; note: nearly all actives have a fitted effect of over 50% in size
Conditions: Lassa virus pseudotype entry inhibition, cell reporter; activity change, negative = inhibition: at 37.9 µM (top of the series) unless noted
In the case of `CN1c2ccccc2[C@@]2(O)C(=O)[C@@]1(C)[C@@H]1CCC=C[C@H]12`, the Potency is reported as inconclusive: 0.335 µM [activator, full curve].
With `C/C(=N/NC(=O)c1cc(-c2ccccc2)nc2c(Cl)cccc12)c1cccnc1` the “activity change, negative = inhibition” value was inactive: -16.2%.
In the case of `O=C(CNc1ccc2c(c1)OCO2)N/N=C\c1cn(Cc2ccccc2)c2ccccc12`, the Potency is reported as inconclusive: 20.6 µM [inhibitor, single point].
With `COc1ccc(C2(O)CCN(CC(=O)Nc3nc(-c4ccccc4)cs3)CC2)cc1` the Potency was inconclusive: 3.55 µM [inhibitor, partial curve, poor fit].
For `CC(C)Oc1ccc(C(=O)NC2CCS(=O)(=O)C2)cc1` (configuration not stated), the Potency was inconclusive: 28.2 µM [activator, single point].
In the case of `CC1CCN(S(=O)(=O)c2cccc(C(=O)N(C)C3(C)CCS(=O)(=O)C3)c2)CC1` (configuration not stated), the Potency is reported as inconclusive: 5.62 µM [inhibitor, single point].
With `CCOc1ccc(C(=O)NC2CCN(S(=O)(=O)c3ccccc3)CC2)cc1` the Potency was inconclusive: 12.6 µM [inhibitor, partial curve, poor fit].
In the case of `CCn1nc(C)c(CNC(=O)C2CCC(=O)N(Cc3cccc(F)c3)C2)c1C` (configuration not stated), the Potency is reported as inconclusive: 3.16 µM [activator, full curve, poor fit].
For `Cc1nn(-c2ccccc2)c(C)c1/C=N/NC(=O)c1cc(-c2cccc3ccccc23)n[nH]1`, the Potency was inconclusive: 2.24 µM [inhibitor, partial curve, poor fit].
With `O=C(c1cccc(C(F)(F)F)c1)C1CCCN(C(=O)C2CCOCC2)C1` (configuration not stated) the “activity change, negative = inhibition” value was inactive: -8.7%.
With `CCOC(=O)c1c(-c2ccccc2)nc2ccccn12` the Potency was inconclusive: 2.59 µM [inhibitor, partial curve, poor fit].
With `Nc1ccc2c(c1)Cc1ccccc1-2` the Potency was inconclusive: 3.98 µM [activator, single point].
In the case of `CCC(C)(C)c1ccc(OC(=O)c2cccnc2Cl)cc1`, the “activity change, negative = inhibition” value is reported as inactive: 23.8%.
For `Cc1cc(C)n(CC(O)COc2ccccc2)n1` (configuration not stated), the “activity change, negative = inhibition” value was inactive: -3.07%.
For `O=C(CSc1nc2ccccc2n1Cc1ccccc1)NCc1ccccc1`, the “activity change, negative = inhibition” value was inactive: -3.6% [at 46.1 µM].
With `COc1ccc(C(=O)C2CN(c3ccccc3)CC2c2ccc(Cl)cc2)cc1` (configuration not stated) the Potency was inconclusive: 15.8 µM [inhibitor, single point].
In the case of `Cc1cccc(-n2c(=O)c3c4c(sc3n3c(=S)[nH]nc23)CCC4)c1`, the “activity change, negative = inhibition” value is reported as inactive: -2.35% [at 46.1 µM].
In the case of `CC(=O)c1ccc(Nc2ccc(-c3ccccc3F)nn2)cc1`, the Potency is reported as inconclusive: 12.6 µM [inhibitor, partial curve, poor fit].
For `CSc1oc(-c2ccc(F)cc2)nc1S(=O)(=O)c1ccc(Br)cc1`, the Potency was inconclusive: 5.62 µM [inhibitor, single point].
With `CSc1nnc2n(C)c3c(c(=O)n12)C1(CCCC1)Cc1ccccc1-3` the “activity change, negative = inhibition” value was inactive: -20.9%.
For `Cc1[nH]c2ccccc2c1CCCNC1CCCCC1`, the Potency was inconclusive: 22.4 µM [inhibitor, single point].
For `Cc1ccc(-c2csc3nc(=O)c(C)nn23)cc1`, the Potency was inconclusive: 0.82 µM [inhibitor, partial curve, poor fit].
For `Cc1ccc(C(=O)c2cn(CC(=O)Nc3ccc4c(c3)OCCO4)c3nc(C)ccc3c2=O)cc1`, the “activity change, negative = inhibition” value was inactive: 0.411% [at 46.1 µM].
For `COC(=O)c1cccc(NC(=O)c2onc3c2CCCC3)c1`, the Potency was inconclusive: 13 µM [inhibitor, partial curve, poor fit].
For `CCCC(=O)NC(=S)Nc1ccc(NC(=O)c2cccs2)cc1`, the “activity change, negative = inhibition” value was inactive: -0.221%.
For `O=C(NCc1cccnc1)c1cccc(OC2CCN(Cc3ccc(CO)o3)CC2)c1`, the “activity change, negative = inhibition” value was inactive: -0.604%.
In the case of `O=C1C2C3C=CC(CO)(O3)C2C(=O)N1c1ccccc1-c1ccccc1` (configuration not stated), the “activity change, negative = inhibition” value is reported as inactive: -18.6%.
With `CCOC(=O)c1nc(NNC(=O)c2ccc([N+](=O)[O-])cc2)sc1C` the Potency was inconclusive: 7.94 µM [inhibitor, partial curve, poor fit].
With `CC(=O)Nc1ccc(NC(=O)C2CCCN2C(=O)NC2CCCCC2)cc1` (configuration not stated) the Potency was inconclusive: 6.31 µM [inhibitor, single point].
In the case of `Cc1cccc(C)c1NC(=S)NCCc1ccc(O)c(O)c1`, the “activity change, negative = inhibition” value is reported as inactive: 1.42%.
In the case of `CCOC(=O)N1CCC(Nc2nc3ccccc3nc2NS(=O)(=O)c2ccc(Cl)cc2)CC1`, the “activity change, negative = inhibition” value is reported as inactive: 5.72%.
With `O=C(Nc1ncc(Cc2ccc(SC(F)F)cc2)s1)c1ccccc1` the Potency was inconclusive: 11.2 µM [inhibitor, partial curve, poor fit].
With `Cc1cc(Nc2nc3ccccc3nc2Cl)n(-c2ccccc2)n1` the Potency was inconclusive: 25.9 µM [inhibitor, single point].
With `COc1ccc(CC(=O)NC(C)c2nnc(SCC(=O)Nc3nc(C)cs3)n2C)cc1` (configuration not stated) the “activity change, negative = inhibition” value was inactive: 3.67%.
With `CCCCc1ccc(NC(=O)C2CCCC2)cc1` the Potency was inconclusive: 11.2 µM [inhibitor, partial curve, poor fit].
With `CCOc1ccc(NS(=O)(=O)c2ccc(C(=O)NCC(c3cccs3)N3CCOCC3)cc2)cc1` (configuration not stated) the Potency was inconclusive: 35.5 µM [inhibitor, single point].
For `Cc1sc2nc(CN3CCN(S(=O)(=O)c4cccc5nonc45)CC3)[nH]c(=O)c2c1C`, the Potency was inconclusive: 0.112 µM [inhibitor, full curve, poor fit].
In the case of `COc1ccccc1CNC(=O)CCSCc1cccc(Cl)c1`, the “activity change, negative = inhibition” value is reported as inactive: 1.98%.
In the case of `COc1cc(-c2nnc(SCC(=O)N(C)C3CCCCC3)o2)cc(OC)c1OC`, the “activity change, negative = inhibition” value is reported as inactive: -0.36% [at 46.1 µM].
With `COc1ccc(C(=O)OCc2csc(C)n2)c(O)c1` the “activity change, negative = inhibition” value was inactive: 13.8%.
In the case of `NS(=O)(=O)c1ccc(CCNC(=O)CN2CCN(c3ccc(F)cc3)CC2)cc1`, the Potency is reported as inconclusive: 2 µM [inhibitor, full curve, poor fit].
For `CCc1ccc(OCC2c3cc(OC)c(OC)cc3CCN2C(=O)Cc2ccc(OC)c(OC)c2)cc1` (configuration not stated), the Potency was inconclusive: 7.94 µM [inhibitor, partial curve, poor fit].
With `COC(=O)c1n[nH]n(-c2cc(Cl)cc(Cl)c2)c1=O` the Potency was inconclusive: 0.794 µM [inhibitor, full curve, poor fit].
For `CCc1ccc(C(=O)Nc2cc(C)ccc2F)s1`, the “activity change, negative = inhibition” value was inactive: 7.98% [at 46.1 µM].
In the case of `CCN(CC)c1ccc(/C=N/NC(=O)c2cccc(S(=O)(=O)N3CCOCC3)c2)cc1`, the “activity change, negative = inhibition” value is reported as inactive: -36.5%.
For `CC(=O)NCC(=O)NC1CCCc2c1cnn2-c1ccc(C(C)(C)C)cc1` (configuration not stated), the Potency was inconclusive: 7.94 µM [inhibitor, partial curve, poor fit].
For `O=C(Nc1ccc(Br)cn1)c1ccc(Br)s1`, the Potency was inconclusive: 8.91 µM [inhibitor, partial curve, poor fit].
With `CCOc1ccc(C(=O)C(CCC(CN(C)C)C(=O)c2ccc(OCC)cc2)CN(C)C)cc1` (configuration not stated) the Potency was active: 4.11 µM.
For `C=C(C)CSc1ncc(-c2cccc(C(F)(F)F)c2)cn1`, the “activity change, negative = inhibition” value was inactive: 4.19%.
With `COc1ccc2ccccc2c1/C=N/N1C(=O)CSC1=S` the Potency was inconclusive: 35.5 µM [inhibitor, single point].
In the case of `Cc1csc2c(N3CCN(C(=O)NC(C)(C)C)CC3)ncnc12`, the “activity change, negative = inhibition” value is reported as inactive: -15.1%.
In the case of `COc1ccc(S(=O)(=O)N2CCc3ccccc32)cc1C(=O)NCCc1ccccn1`, the “activity change, negative = inhibition” value is reported as inactive: -29%.
In the case of `Cc1cc(C)nc(CCNC(=O)CC2C(=O)NCCN2Cc2ccccc2)n1` (configuration not stated), the Potency is reported as inconclusive: 1 µM [inhibitor, full curve, poor fit].
With `COc1ccc(-c2noc(CSc3nnc(-c4ccncc4)n3-c3cccc(C)c3)n2)cc1OC` the “activity change, negative = inhibition” value was inactive: -7.93% [at 46.1 µM].
For `COc1ccccc1NC(=O)Nc1nc(CC(=O)Nc2ccc(OC)c(OC)c2)cs1`, the “activity change, negative = inhibition” value was inactive: 10.8%.
In the case of `COc1cccc(C(=O)Oc2cc3c4c(c2)C(C)=CC(C)(C)N4C(=O)C3=O)c1`, the Potency is reported as inconclusive: 9.2 µM [inhibitor, partial curve].
With `O=C(Nc1nnc(Cc2ccc([N+](=O)[O-])cc2)s1)c1ccc2c(c1)OCO2` the “activity change, negative = inhibition” value was inactive: -10.3%.
With `Cc1ccc(S(=O)(=O)N2CCCc3cc(NC(=O)c4ccc(C(F)(F)F)cc4)ccc32)cc1` the Potency was inconclusive: 10 µM [inhibitor, partial curve, poor fit].
For `COC(=O)c1ccccc1NC(=O)CSc1nc(O)cc(=O)n1C1CCCC1`, the “activity change, negative = inhibition” value was inactive: 14.6%.
In the case of `CCOC(=O)c1ccccc1NC(=O)COC(=O)C(Cc1c[nH]c2ccccc12)NC(C)=O` (configuration not stated), the Potency is reported as inconclusive: 35.5 µM [inhibitor, single point].
In the case of `O=C(C1COc2ccccc2O1)N1CCc2ccccc2C1` (configuration not stated), the “activity change, negative = inhibition” value is reported as inactive: -2.54%.
In the case of `O=C(c1ccc(Cl)cc1)N1CCN(c2ncccn2)CC1`, the “activity change, negative = inhibition” value is reported as inactive: -3.04%.
With `COc1cc(/C(C)=N/NC(=S)NC(C)C)cc(OC)c1OC` the “activity change, negative = inhibition” value was inactive: -17.8%.
With `Cc1c(C(=O)NCc2ccc(S(N)(=O)=O)cc2)oc2ccc(Cl)cc12` the Potency was inconclusive: 3.55 µM [inhibitor, full curve, poor fit].
With `CC(C)OC(=O)C(C(=O)C(F)(F)F)c1cc(NS(=O)(=O)c2ccc3ccccc3c2)c2ccccc2c1O` (configuration not stated) the Potency was inconclusive: 18.4 µM [inhibitor, single point].
In the case of `COc1ccc(C(=O)CC(=O)c2ccccc2O)cc1`, the Potency is reported as inconclusive: 35.5 µM [inhibitor, single point].
In the case of `COc1cccc(-c2nc(SC(C(C)=O)C(=O)N(C)C)c3c(=O)n(C)c(=O)n(C)c3n2)c1` (configuration not stated), the “activity change, negative = inhibition” value is reported as inactive: -6.57% [at 46.1 µM].
In the case of `O=C(COc1ccc(Cl)cc1Cl)N(C1CCCCC1)C1CCS(=O)(=O)C1` (configuration not stated), the “activity change, negative = inhibition” value is reported as inactive: -13.8%.
For `CCC1SC2=NC(C)=C(C(=O)OCCOC)C(/C=C/c3ccccc3OC)N2C1=O` (configuration not stated), the “activity change, negative = inhibition” value was inactive: 0.269%.
In the case of `CCNc1c(NC(=O)c2ccccc2OCC)c(=O)oc2ccccc12`, the “activity change, negative = inhibition” value is reported as inactive: -11.1% [at 46.1 µM].
For `CC(C)(C)c1ccc(/C=N/OCC(=O)NCc2ccc(F)cc2)cc1`, the Potency was inconclusive: 25.9 µM [inhibitor, partial curve, poor fit].
For `Cc1ccc(/C=N/NC(=O)NN(C)c2ncc(C(F)(F)F)cc2Cl)cc1`, the Potency was inconclusive: 11.2 µM [inhibitor, partial curve, poor fit].
